These are yes or no findings as the source states them, for the method shown. In cells and extracts the contact can be indirect. Here binding means that the protein was enriched with, or labelled near, the bait; the list need not be complete.

Data on 1 molecule can be found in article doi:10.1101/2023.07.24.550360.

The target of this assay is TbCul-A (T. brucei brucei (endogenous in procyclic Lister 427 cells)). In words: affinity purification with mass spectrometry.

B1: ornithine decarboxylase (TbODC) (enzyme, UniProt P07805 1-423)
chain: MDIVVNDDLSCRFLEGFNTRDALCKKISMNTCDEGDPFFVADLGDIVRKHETWKKCLPRVTPFYAVKCNDDWRVLGTLAALGTGFDCASNTEIQRVRGIGVPPEKIIYANPCKQISHIRYARDSGVDVMTFDCVDELEKVAKTHPKAKMVLRISTDDSLARCRLSVKFGAKVEDCRFILEQAKKLNIDVTGVSFHVGSGSTDASTFAQAISDSRFVFDMGTELGFNMHILDIGGGFPGTRDAPLKFEEIAGVINNALEKHFPPDLKLTIVAEPGRYYVASAFTLAVNVIAKKVTPGVQTDVGAHAESNAQSFMYYVNDGVYGSFNCILYDHAVVRPLPQREPIPNEKLYPSSVWGPTCDGLDQIVERYYLPEMQVGEWLLFEDMGAYTVVGTSSFNGFQSPTIYYVVSGLPDHVVRELKSQKS
As to B1, the binding entry is on record as “binds”.
